Experimental data as given in article PMC5362491.
No constants are given. Whether binding was seen depends on the method and setting. In cells and extracts the contact can be indirect. Some entries that bind do so weakly or less than the wild type.

Amino acid sequences for entries named in this document (tags omitted).
UniProt P35222: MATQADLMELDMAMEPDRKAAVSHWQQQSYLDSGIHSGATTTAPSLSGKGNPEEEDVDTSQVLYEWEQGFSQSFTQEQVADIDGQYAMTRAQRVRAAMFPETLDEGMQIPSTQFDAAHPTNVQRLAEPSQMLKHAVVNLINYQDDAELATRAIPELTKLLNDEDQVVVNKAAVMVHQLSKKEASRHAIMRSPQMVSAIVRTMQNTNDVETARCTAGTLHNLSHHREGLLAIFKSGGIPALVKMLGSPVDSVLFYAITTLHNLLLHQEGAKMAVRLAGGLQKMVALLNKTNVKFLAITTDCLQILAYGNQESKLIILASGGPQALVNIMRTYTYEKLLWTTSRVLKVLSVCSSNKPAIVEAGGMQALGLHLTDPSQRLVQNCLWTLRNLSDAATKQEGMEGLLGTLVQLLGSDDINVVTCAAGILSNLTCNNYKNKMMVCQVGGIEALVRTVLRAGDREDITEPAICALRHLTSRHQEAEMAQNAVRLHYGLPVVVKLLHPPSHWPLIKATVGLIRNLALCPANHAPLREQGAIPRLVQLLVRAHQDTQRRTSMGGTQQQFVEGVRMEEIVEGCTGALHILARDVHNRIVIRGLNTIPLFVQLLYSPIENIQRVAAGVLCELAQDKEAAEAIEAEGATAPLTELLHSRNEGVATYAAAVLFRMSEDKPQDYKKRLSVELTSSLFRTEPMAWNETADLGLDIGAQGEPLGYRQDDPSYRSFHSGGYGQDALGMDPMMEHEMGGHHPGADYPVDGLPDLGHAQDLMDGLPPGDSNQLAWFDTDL
UniProt P24385: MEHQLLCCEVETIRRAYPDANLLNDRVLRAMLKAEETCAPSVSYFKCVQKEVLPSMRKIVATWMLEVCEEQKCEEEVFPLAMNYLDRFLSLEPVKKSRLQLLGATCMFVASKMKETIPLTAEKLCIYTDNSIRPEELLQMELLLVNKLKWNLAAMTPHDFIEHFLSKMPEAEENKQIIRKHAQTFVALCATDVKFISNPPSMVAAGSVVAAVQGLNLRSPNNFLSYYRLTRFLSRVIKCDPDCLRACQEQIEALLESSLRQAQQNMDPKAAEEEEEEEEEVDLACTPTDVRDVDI
UniProt P01106: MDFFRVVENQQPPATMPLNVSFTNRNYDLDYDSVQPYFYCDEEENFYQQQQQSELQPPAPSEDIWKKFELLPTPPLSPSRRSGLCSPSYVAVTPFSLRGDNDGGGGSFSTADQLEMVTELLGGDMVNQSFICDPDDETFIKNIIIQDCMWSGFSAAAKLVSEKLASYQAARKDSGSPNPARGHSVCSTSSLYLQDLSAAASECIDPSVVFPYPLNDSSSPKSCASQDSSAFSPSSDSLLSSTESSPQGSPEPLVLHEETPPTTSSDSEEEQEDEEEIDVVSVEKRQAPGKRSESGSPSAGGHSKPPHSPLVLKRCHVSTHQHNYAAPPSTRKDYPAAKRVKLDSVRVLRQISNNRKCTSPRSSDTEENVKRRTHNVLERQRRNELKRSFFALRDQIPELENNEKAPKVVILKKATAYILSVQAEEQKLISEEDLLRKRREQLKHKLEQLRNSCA

Molecular target: β-catenin (human (endogenous in CNE2)) (UniProt P35222)
Assay: co-IP; reverse immunoprecipitation with anti-β-catenin antibody (2 μg, overnight, 4°C; protein A Mag Sepharose) from 500 μg protein of CNE2 cells; cells treated with 10 μM FM807 for 6 h; immunoblot

Row | binding | Substance
1 | binds | Cyclin D1 (from UniProt P24385 1-295)
2 | binds | c-Myc (from UniProt P01106 1-454)
